From patent publication US12590110B2, “Amorphous (a-polymorphic) psilocybin” (Diamond Therapeutics Inc., priority 2022, dated 2026)
At least one structure is not confirmed: it was looked up by name or label, or the drawing left a doubt.

Assays:
[1] = Stability study: XRPD of psilocybin lyophilisate (no sugar) after 1 week storage at room temperature; assay type: physicochemical; settings: following 1 week of storage at RT (25 deg. C); absence of sugars or polymer; 5 s per step (ST) or 30 s per step (LT)
[2] = Stability study: polarizing microscopy of lyophilized samples on day 1; assay type: physicochemical; settings: day 1 of storage at room temperature; lyophilization experiment (no sugar)

SMILES | XRPD sharp reflexes (non-crystalline/amorphous phase maintained) [1] | crystalline structure by polarizing microscopy [2]
CN(C)CCc1c[nH]c2cccc(OP(=O)(O)O)c12 [PSI LYO ST, psilocybin] | no sharp reflexes | –
CN(C)CCc1c[nH]c2cccc(OP(=O)(O)O)c12 [psilocybin lyophilisate, psilocybin] | – | no crystalline structure
